In PubChem BioAssay AID1487 (National Center for Advancing Translational Sciences (NCATS), 2009):
Where “and” joins values, the source holds several entries; their conditions need not be identical. Equal entries are not always repeated. Some of the results follow. These are further read-outs of the screen, such as a control signal, another cell line or another target. No call is given for them. Compounds called inactive in the main read-out are mostly missing here. Words in brackets tell the shape of the fitted curve; partial curves, single points and poor fits give uncertain potencies.

Assay: qHTS Assay for Modulators of Lamin A Splicing
Conditions: HeLa LMNA splicing GFP/RFP minigene ratio, 48 h
How it was run: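 S3 HeLa stable clones carrying a lamin A-EGFP splicing minigene plus DsRed2 were seeded at 600 cells/well in Opti-MEM with 2% FBS, pin-dosed and incubated 48 h at 37°C. Acumen cytometry (488 nm) gave the GFP/RFP total-intensity ratio.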

[1] = measured here: GFP splicing reporter channel
[2] = measured here: RFP viability control channel

Compound: O=C1OCC2=C1C(c1ccc(F)cc1)c1cc3c(cc1N2)OCCO3 (stereo not drawn)
- AC50 [1]: 0.00316 µM [falling, full curve, poor fit]
- AC50 [2]: 2.82 µM [falling, partial curve, poor fit]

Compound: CCOc1ccc(OCC)c(S(=O)(=O)NCCOC23CC4CC(CC(C4)C2)C3)c1
- AC50 [1]: 12.6 µM [rising, single point]
- AC50 [2]: 17.8 µM [rising, partial curve]

Compound: C=Cc1c(C)c2cc3[nH]c(cc4nc(cc5nc(cc1[nH]2)C(C)=C5CCC(=O)O)C(CCC(=O)O)=C4C)c(C)c3C=C
- AC50 [1]: 7.08 µM [rising, partial curve] and 11.2 µM [falling, partial curve]
- AC50 [2]: 10 µM [falling, partial curve]

Compound: O=C(NCc1cccc(F)c1)c1cccc(NC(=O)c2nsc3ccccc23)c1
- AC50 [1]: 0.891 µM [rising, full curve, poor fit]
- AC50 [2]: 20 µM [rising, single point]

Compound: CCc1ccc(Nc2nc(N)nc(CSc3nc4ccccc4s3)n2)cc1
- AC50 [1]: 22.4 µM [falling, single point]
- AC50 [2]: 14.1 µM [falling, single point]

Compound: N#CC1=C(N)N(c2ccccc2)C(c2cccc([N+](=O)[O-])c2)C1(C#N)C#N (stereo not drawn)
- AC50 [1]: 0.0794 µM [rising, full curve, poor fit]

Compound: Nc1nc(Cl)nc2c1ncn2[C@@H]1O[C@@H](CO)[C@@H](O)[C@H]1O
- AC50 [1]: 12.6 µM [rising, partial curve]
- AC50 [2]: 12.6 µM [rising, partial curve, poor fit]

Compound: Cc1cccc(-n2ncc3c(NC4CCCC4)ncnc32)c1
- AC50 [1]: 35.5 µM [falling, partial curve, poor fit]

Compound: O=C(COc1ccc2c(c1)OCO2)Nc1ccccc1C(F)(F)F
- AC50 [2]: 1.12 µM [falling, single point]

Compound: CCC(C(=O)Nc1cc(-c2nc3cccnc3s2)ccc1C)c1ccccc1 (stereo not drawn)
- AC50 [1]: 22.4 µM [falling, partial curve]
- AC50 [2]: 31.6 µM [falling, partial curve]

Compound: COc1ccc(N2CCN(Cc3nc4ccccc4n3C)CC2)cc1
- AC50 [1]: 22.4 µM [rising, single point]
- AC50 [2]: 22.4 µM [rising, single point]

Compound: COc1ccc(N=C/C=C2\C=C(c3ccccc3)OC(C)(C)O2)cc1
- AC50 [2]: 17.8 µM [rising, partial curve]

Compound: O=C(OCn1nnc2ccccc2c1=O)c1cn(-c2ccccc2)nc1-c1cccnc1
- AC50 [1]: 6.31 µM [rising, partial curve]

Compound: Cc1cc(C)nc(SCC(=O)Nc2nc(-c3ccccc3)c(-c3ccccc3)o2)n1
- AC50 [2]: 35.5 µM [rising, single point]

Compound: O=c1c(N2CCN(c3cccc(C(F)(F)F)c3)CC2)csc2ccc(Cl)cc12
- AC50 [1]: 35.5 µM [falling, single point]
- AC50 [2]: 35.5 µM [falling, single point]

Compound: COc1ccc(/C=N/OCC(=O)Nc2nc3ccccc3s2)cc1
- AC50 [1]: 0.0794 µM [rising, full curve, poor fit]

Compound: Cc1nn(C)c2c1c(-c1ccccc1)cc(=O)n2C(C)C(=O)NCc1ccc(F)cc1 (stereo not drawn)
- AC50 [2]: 0.00282 µM [falling, full curve, poor fit]

Compound: COC(=O)c1sc(S(=O)(=O)Nc2ccc(Br)cc2)c(C(=O)OC)c1C
- AC50 [2]: 14.1 µM [rising, single point]

Compound: Cc1nnsc1C(=O)N/N=C/c1ccc2ccccc2c1O
- AC50 [2]: 3.16 µM [rising, full curve]

Compound: O=C(Cc1c(F)cccc1Cl)Nc1ccc(-n2cnnn2)cc1
- AC50 [2]: 0.158 µM [rising, full curve, poor fit]

Compound: CCCCSc1nc(C)cc(SCC(=O)N/N=C/c2cccc(OC)c2O)n1
- AC50 [1]: 7.94 µM [falling, partial curve]
- AC50 [2]: 6.31 µM [falling, full curve]

Compound: S=C(NCc1ccccc1Cl)NC1CCCC1
- AC50 [1]: 7.08 µM [rising, partial curve, poor fit]

Compound: COc1ccc(N2CCN(c3oc(-c4ccco4)nc3C#N)CC2)cc1
- AC50 [2]: 15.8 µM [rising, single point]

Compound: O=C(/C=C/c1ccc2ccccc2n1)N1CCN(c2ccccc2)CC1
- AC50 [2]: 35.5 µM [rising, single point]

Compound: c1ccc(-c2nnc(N3CCN(c4ccccn4)CC3)c3ccccc23)cc1
- AC50 [2]: 14.1 µM [rising, single point]

Compound: COc1ccc(N(C(=O)c2cccnc2)S(=O)(=O)c2cccs2)cc1
- AC50 [2]: 0.631 µM [rising, partial curve]

Compound: CC(C)C(=O)NC(c1ccccc1)c1cc([N+](=O)[O-])c2cccnc2c1O (stereo not drawn)
- AC50 [2]: 6.31 µM [rising, full curve]

Compound: COC(=O)c1c(-c2ccc(Cl)cc2)noc1N1CCN(c2cccc(C(F)(F)F)c2)CC1
- AC50 [1]: 2.82 µM [falling, full curve]
- AC50 [2]: 4.47 µM [falling, partial curve]

Compound: COc1ccc(CCN(C)C(=S)NC(=O)c2ccc(F)cc2Cl)cc1OC
- AC50 [2]: 0.158 µM [rising, full curve, poor fit]

Compound: Nc1c(Cl)ncnc1N/N=C/c1ccc2ccccc2n1
- AC50 [2]: 2.82 µM [rising, full curve]

Compound: CCOC(=O)CC(NC(=O)N1CCC(CN2CCC(C)CC2)CC1)c1ccccc1 (stereo not drawn)
- AC50 [2]: 0.708 µM [falling, full curve, poor fit]

Compound: COc1ccccc1-n1c(SCC(=O)N2CCc3ccccc32)nc2c(c1=O)SCC2
- AC50 [2]: 11.2 µM [rising, partial curve]

Compound: CC1(C)[C@@H]2CC[C@@]1(C)C(=O)C2
- AC50 [1]: 0.00158 µM [falling, full curve, poor fit]
- AC50 [2]: 10 µM [rising, single point]

Compound: COc1ccc(OC)c(CN2CCN(C(=O)c3cccc4ccccc34)CC2)c1
- AC50 [2]: 11.2 µM [rising, single point]

Compound: COc1ccc(-c2cc(C(F)(F)F)nc(SCC(=O)Nc3cc(C)on3)n2)cc1
- AC50 [2]: 3.98 µM [rising, full curve]

Compound: O=C(/C=C/c1ccccc1)CC(O)(c1ccccc1)C(F)(F)F (stereo not drawn)
- AC50 [1]: 25.1 µM [falling, single point]
- AC50 [2]: 35.5 µM [falling, single point]

Compound: CCCCN(C)C(=O)C1CCC(CNS(=O)(=O)c2ccc(Cl)cc2)CC1 (stereo not drawn)
- AC50 [2]: 31.6 µM [falling, partial curve]

Compound: Cc1cc(=O)oc2cc(OC(=O)CCCCCN3C(=O)c4ccccc4C3=O)ccc12
- AC50 [2]: 3.16 µM [falling, full curve, poor fit]

Compound: Cc1cc(Cl)nc(-c2ccccc2)n1
- AC50 [1]: 0.0891 µM [falling, full curve]
- AC50 [2]: 0.0447 µM [falling, full curve]

Compound: CN1CCN(C(c2ccccn2)c2cc(Cl)c3cccnc3c2O)CC1 (stereo not drawn)
- AC50 [2]: 10 µM [rising, partial curve]

Compound: O=C(N/N=C/c1cn(-c2ccccc2)nc1-c1ccccc1)c1ccco1
- AC50 [1]: 14.1 µM [rising, single point]
- AC50 [2]: 12.6 µM [rising, partial curve]

Compound: CCOc1cc(CNc2ccc3c(c2)OCCO3)cc(Br)c1OCC
- AC50 [1]: 4.47 µM [falling, full curve]
- AC50 [2]: 5.01 µM [falling, full curve]

Compound: O=C(COC(=O)CCc1nc2ccccc2c(=O)[nH]1)NC1CCS(=O)(=O)C1 (stereo not drawn)
- AC50 [1]: 11.2 µM [falling, partial curve, poor fit]

Compound: COc1ccc2c(c1OC)C(=O)OC2C1c2c(cc3c(c2OC)OCO3)CCN1C (stereo not drawn)
- AC50 [2]: 35.5 µM [rising, single point] and 11.2 µM [rising, partial curve]

Compound: COc1ccc(N=c2scc(-c3ccc(OC)cc3)n2CCO)cc1
- AC50 [2]: 22.4 µM [rising, partial curve]

Compound: Cc1ccc(S(=O)(=O)N[C@H](C(=O)OCC(=O)NC(=O)Nc2ccc3c(c2)OCCO3)C(C)C)cc1
- AC50 [1]: 11.2 µM [rising, partial curve]
- AC50 [2]: 12.6 µM [rising, partial curve]

Compound: COC(=O)c1ccc(CSc2nc3c(cnn3-c3ccc(Cl)cc3)c(=O)[nH]2)o1
- AC50 [1]: 7.08 µM [falling, partial curve, poor fit]

Compound: CCOC(=O)c1ccc2c(c1)nc(SCc1cn3ccsc3n1)n2CC
- AC50 [1]: 11.2 µM [rising, partial curve]
- AC50 [2]: 12.6 µM [rising, partial curve]

Compound: Cc1ccc(NC(=O)CN2C(=O)C3(SCC(=O)N3c3cccc(Cl)c3)c3ccccc32)cc1C (stereo not drawn)
- AC50 [1]: 0.112 µM [falling, full curve, poor fit]

Compound: CCCN1C[C@H](CSC)C[C@@H]2c3cccc4[nH]cc(c34)C[C@H]21
- AC50 [1]: 562 nM [falling, full curve] and 35.5 µM [rising, single point]

Compound: COc1cc(SC)ccc1C(=O)Nc1ncc(C)s1
- AC50 [2]: 25.1 µM [falling, partial curve, poor fit]

Compound: O=C(Cn1nc(C(F)F)cc1C(F)F)NNC(=S)Nc1ccc([N+](=O)[O-])cc1
- AC50 [2]: 0.0708 µM [falling, full curve]

Compound: CCc1c(C#N)c(SCCC(=O)Nc2ccc(C)cc2)nc2c1C(=O)CC(C)(C)C2
- AC50 [1]: 5.62 µM [falling, single point]

Compound: Cc1ccc(NS(=O)(=O)c2ccc3c(c2)CCCN3C(=O)C2CCC2)cc1Cl
- AC50 [2]: 11.2 µM [rising, single point]

Compound: O=C(Cn1nc(CNc2ccc(Cl)cc2)[n+]2c1CCCCC2)c1ccc(Cl)cc1
- AC50 [2]: 35.5 µM [rising, single point]
